The results in this text go back to publication PMC5035991.

The assay concerns the target T1, endogenous wild-type MuSK (muscle specific kinase) (mouse (endogenous in C2C12)) (UniProt Q61006).
T1 sequence: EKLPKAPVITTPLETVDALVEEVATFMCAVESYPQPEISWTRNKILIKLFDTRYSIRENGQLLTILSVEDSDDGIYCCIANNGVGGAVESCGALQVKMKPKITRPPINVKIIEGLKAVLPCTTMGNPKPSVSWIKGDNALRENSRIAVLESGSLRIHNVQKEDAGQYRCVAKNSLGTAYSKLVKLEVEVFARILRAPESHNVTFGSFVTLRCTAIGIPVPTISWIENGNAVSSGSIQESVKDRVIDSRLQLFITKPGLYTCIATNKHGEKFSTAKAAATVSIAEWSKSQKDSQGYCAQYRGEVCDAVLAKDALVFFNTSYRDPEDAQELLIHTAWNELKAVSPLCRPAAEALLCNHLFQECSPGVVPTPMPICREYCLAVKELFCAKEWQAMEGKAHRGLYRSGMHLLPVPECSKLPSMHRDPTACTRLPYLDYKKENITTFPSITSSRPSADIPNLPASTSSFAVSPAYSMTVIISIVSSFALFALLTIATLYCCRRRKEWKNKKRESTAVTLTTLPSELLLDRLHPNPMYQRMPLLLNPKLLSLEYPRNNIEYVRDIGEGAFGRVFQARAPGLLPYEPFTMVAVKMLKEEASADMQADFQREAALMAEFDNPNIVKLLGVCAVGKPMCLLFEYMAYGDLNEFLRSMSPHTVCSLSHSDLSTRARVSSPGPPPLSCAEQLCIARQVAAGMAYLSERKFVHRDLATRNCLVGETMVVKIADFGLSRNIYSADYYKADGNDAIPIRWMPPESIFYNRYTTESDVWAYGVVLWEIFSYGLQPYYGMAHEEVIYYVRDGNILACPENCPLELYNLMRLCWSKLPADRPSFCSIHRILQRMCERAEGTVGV
Nature of the assay: co-IP; C2C12 muscle cells expressing endogenous MuSK and exogenous HA-MuSK-Myc; immunoprecipitation with an antibody that recognizes only endogenous MuSK; immunoblot with anti-MuSK and anti-Myc antibodies; quantified. On the technique in general: Immunoblotting shows a protein as a band on a membrane.

No constants are given. Whether binding was seen depends on the method and setting. In cells and extracts the contact can be indirect. Some binding calls cover weakened binding; strength is not graded here. Where a sequence is shown, tags or fusion partners need not be part of it.

B1: exogenous MuSK wild-type with a N-terminal HA-Tag and a C-terminal Myc-Tag (LXSG/MuSK-WT) (receptor, UniProt Q62838 22-868)
chain: EKLPKAPVITTPLETVDALVEEVATFMCAVESYPQPEISWTRNKILIKLFDTRYSIRENGQLLTILSVEDSDDGIYCCTANNGVGGAVESCGALQVKMKPKITRPPINVKIIEGLKAVLPCTTMGNPKPSVSWIKGDSALRENSRIAVLESGSLRIHNVQKEDAGQYRCVAKNSLGTAYSKLVKLEVEVFARILRAPESHNVTFGSFVTLRCTAIGMPVPTISWIENGNAVSSGSIQENVKDRVIDSRLQLFITKPGLYTCIATNKHGEKFSTAKAAATVSIAEWSKSQKESKGYCAQYRGEVCDAVLVKDSLVFFNTSYPDPEEAQELLIHTAWNELKAVSPLCRPAAEALLCNHLFQECSPGVLPTPMPICREYCLAVKELFCAKEWLAMEGKTHRGLYRSGMHFLPVPECSKLPSMHQDPTACTRLPYLDYKKENITTFPSITSSKPSVDIPNLPASTSSFAVSPAYSMTVIISIMSCFAVFALLTITTLYCCRRRREWKNKKRESAAVTLTTLPSELLLDRLHPNPMYQRMPLLLNPKLLSLEYPRNNIEYVRDIGEGAFGRVFQARAPGLLPYEPFTMVAVKMLKEEASADMQADFQREAALMAEFDNPNIVKLLGVCAVGKPMCLLFEYMAYGDLNEFLRSMSPHTVCSLSHSDLSTRARVSSPGPPPLSCAEQLCIARQVAAGMAYLSERKFVHRDLATRNCLVGENMVVKIADFGLSRNIYSADYYKADGNDAIPIRWMPPESIFYNRYTTESDVWAYGVVLWEIFSYGLQPYYGMAHEEVIYYVRDGNILACPENCPLELYNLMRLCWSKLPADRPSFCSIHRILQRMCERAEGTVGV
As to B1, the binding result is “binds”.

B2: exogenous MuSK S751A with a N-terminal HA-Tag and a C-terminal Myc-Tag (receptor, UniProt Q62838 22-868)
chain: EKLPKAPVITTPLETVDALVEEVATFMCAVESYPQPEISWTRNKILIKLFDTRYSIRENGQLLTILSVEDSDDGIYCCTANNGVGGAVESCGALQVKMKPKITRPPINVKIIEGLKAVLPCTTMGNPKPSVSWIKGDSALRENSRIAVLESGSLRIHNVQKEDAGQYRCVAKNSLGTAYSKLVKLEVEVFARILRAPESHNVTFGSFVTLRCTAIGMPVPTISWIENGNAVSSGSIQENVKDRVIDSRLQLFITKPGLYTCIATNKHGEKFSTAKAAATVSIAEWSKSQKESKGYCAQYRGEVCDAVLVKDSLVFFNTSYPDPEEAQELLIHTAWNELKAVSPLCRPAAEALLCNHLFQECSPGVLPTPMPICREYCLAVKELFCAKEWLAMEGKTHRGLYRSGMHFLPVPECSKLPSMHQDPTACTRLPYLDYKKENITTFPSITSSKPSVDIPNLPASTSSFAVSPAYSMTVIISIMSCFAVFALLTITTLYCCRRRREWKNKKRESAAVTLTTLPSELLLDRLHPNPMYQRMPLLLNPKLLSLEYPRNNIEYVRDIGEGAFGRVFQARAPGLLPYEPFTMVAVKMLKEEASADMQADFQREAALMAEFDNPNIVKLLGVCAVGKPMCLLFEYMAYGDLNEFLRSMSPHTVCSLSHSDLSTRARVSSPGPPPLSCAEQLCIARQVAAGMAYLSERKFVHRDLATRNCLVGENMVVKIADFGLSRNIYAADYYKADGNDAIPIRWMPPESIFYNRYTTESDVWAYGVVLWEIFSYGLQPYYGMAHEEVIYYVRDGNILACPENCPLELYNLMRLCWSKLPADRPSFCSIHRILQRMCERAEGTVGV
Consider B2, for which the binding entry was “binds”.

B3: exogenous MuSK S751D with a N-terminal HA-Tag and a C-terminal Myc-Tag (receptor, UniProt Q62838 22-868)
chain: EKLPKAPVITTPLETVDALVEEVATFMCAVESYPQPEISWTRNKILIKLFDTRYSIRENGQLLTILSVEDSDDGIYCCTANNGVGGAVESCGALQVKMKPKITRPPINVKIIEGLKAVLPCTTMGNPKPSVSWIKGDSALRENSRIAVLESGSLRIHNVQKEDAGQYRCVAKNSLGTAYSKLVKLEVEVFARILRAPESHNVTFGSFVTLRCTAIGMPVPTISWIENGNAVSSGSIQENVKDRVIDSRLQLFITKPGLYTCIATNKHGEKFSTAKAAATVSIAEWSKSQKESKGYCAQYRGEVCDAVLVKDSLVFFNTSYPDPEEAQELLIHTAWNELKAVSPLCRPAAEALLCNHLFQECSPGVLPTPMPICREYCLAVKELFCAKEWLAMEGKTHRGLYRSGMHFLPVPECSKLPSMHQDPTACTRLPYLDYKKENITTFPSITSSKPSVDIPNLPASTSSFAVSPAYSMTVIISIMSCFAVFALLTITTLYCCRRRREWKNKKRESAAVTLTTLPSELLLDRLHPNPMYQRMPLLLNPKLLSLEYPRNNIEYVRDIGEGAFGRVFQARAPGLLPYEPFTMVAVKMLKEEASADMQADFQREAALMAEFDNPNIVKLLGVCAVGKPMCLLFEYMAYGDLNEFLRSMSPHTVCSLSHSDLSTRARVSSPGPPPLSCAEQLCIARQVAAGMAYLSERKFVHRDLATRNCLVGENMVVKIADFGLSRNIYDADYYKADGNDAIPIRWMPPESIFYNRYTTESDVWAYGVVLWEIFSYGLQPYYGMAHEEVIYYVRDGNILACPENCPLELYNLMRLCWSKLPADRPSFCSIHRILQRMCERAEGTVGV
In the case of B3, the binding result is given as “binds”.
